± gives the standard deviation of the averaged measurements. The list shows a part of the results. Most values lie within the scatter of the assay; repeated measurements hardly agree.
Tests used:
IL-6-GFP PC-9GR = assay: IL-6-GFP fluorescence relative to DMSO control (fraction of control); higher = more IL-6-GFP expression; conditions: compound concentration: 10 uM; treatment time: 48 h
Protocol: (§1)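 IL-6-GFP-overexpressing PC-9 and PC-9GR EGFR-mutant lung cancer cells (3000 cells/well, 96-well) were treated for 48 h with each compound of the Selleck L2000 library at 10 uM. IL-6-GFP fluorescence was read on a high-content screening system, and viability by CCK-8 absorbance on a parallel plate set. Each value was normalised as compound well / DMSO control well; two independent replicates.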

IL-6-GFP PC-9 = assay: as above; conditions: compound concentration: 10 uM; treatment time: 48 h
Protocol: as §1

SMILES	IL-6-GFP fluorescence (IL-6-GFP PC-9GR)	IL-6-GFP fluorescence (IL-6-GFP PC-9)
NC1CCCCC1N.O=C([O-])C(=O)[O-].[Pt+2] (stereo not drawn) [Oxaliplatin]	0.862 ± 0.05	1.1 ± 0.56
COC1CC2CCC(C)C(O)(O2)C(=O)C(=O)N2CCCCC2C(=O)OC(C(C)CC2CCC(OCCO)C(OC)C2)CC(=O)C(C)/C=C(\C)C(O)C(OC)C(=O)C(C)CC(C)/C=C/C=C/C=C/1C (stereo not drawn) [Everolimus (RAD001)]	1.06 ± 0.011	0.985 ± 0.0064
COc1ccc2cc1Oc1ccc(cc1)CC1c3cc(c(OC)cc3CCN1C)Oc1c(O)c(OC)cc3c1C(C2)N(C)CC3 (stereo not drawn) [Fangchinoline]	0.937 ± 0.16	0.733 ± 0.27
CC1CC2C3CCC4=CC(=O)C=CC4(C)C3(F)C(O)CC2(C)C1C(=O)CO (stereo not drawn) [Desoximetasone]	0.892 ± 0.076	0.914 ± 0.024
CC1=NN(c2ccc(C)c(C)c2)C(=O)/C1=N\Nc1cccc(-c2cccc(C(=O)O)c2)c1O.NCCO.NCCO [Eltrombopag Olamine]	0.28 ± 0.072	0.341 ± 0.29
C=CCC1/C=C(\C)CC(C)CC(OC)C2OC(O)(C(=O)C(=O)N3CCCCC3C(=O)OC(/C(C)=C/C3CCC(O)C(OC)C3)C(C)C(O)CC1=O)C(C)CC2OC (stereo not drawn) [Tacrolimus (FK506)]	0.727 ± 0.12	0.787 ± 0.11
Cc1ccc(C(C)C)c(O)c1 [Thymol]	1.18 ± 0.37	0.857 ± 0.072
Cc1ccc(NC(=O)c2ccc(CN3CCN(C)CC3)cc2)cc1Nc1nc(-c2cccnc2)cs1 [Masitinib (AB1010)]	1.24 ± 0.18	0.958 ± 0.17
CC(C)Cc1ccc(C(C)C(=O)OCc2ccccn2)cc1 (stereo not drawn) [Ibuprofen piconol]	0.834 ± 0.099	0.818 ± 0.028

Reference: the supplement of paper PMC8866396
